The target of the assay is NanoLuc-AT1R (angiotensin II type 1 receptor) (UniProt P30556). Briefly: FRET or BRET; NanoBRET saturation binding on live HEK293FT cells expressing Nluc-AT1R; cells first treated with 100 uM LVV-H7 (10 uM also tested) 20 min at 37 C, then increasing doses of BODIPY-AngII 40 min at 37 C; specific binding by subtracting wells with 1 uM olmesartan medoxomil; only the binder purified. (BRET reads energy transfer from a luciferase to a nearby fluorophore.)

Results are given in words; binding and its absence hold for the method and conditions named. Binding seen in cells or lysates may run through a third protein. Some binding calls cover weakened binding; strength is not graded here.

The record followed here is paper PMC7795518, “Insights into the Interaction of LVV-Hemorphin-7 with Angiotensin II Type 1 Receptor” (International Journal of Molecular Sciences, 2020).

As to LVVYPWTQRF [LVV-hemorphin-7], the binding result is recorded as “binds”.
